# These are yes or no findings as the source states them, for the method shown.
# B1: SsCHAD (CHAD domain–containing protein from Sulfolobus solfataricus) (protein, UniProt Q97YW1 1-211)
# chain: MTISQVKDYLNLQLKKAIQINGIGVEEIHDMRVAVRKYFDVLYAIHPVYENVECLFLAKEAIKRLGKVRDMDICEIANGERTKLAIRALKDVRELQVCFVNDKIYGVRLTIYNRILSSLHQIQDITDFHELRKNIRVTRNLVEALGYDNTEIKALAKKMGDIRDEILKMRCRGLTPPDINIIQYKEEAKRVILKIIASQEEFHHFKIEDRY
# Target: SsCHAD (CHAD domain–containing protein from Sulfolobus solfataricus) (Sulfolobus solfataricus) (UniProt Q97YW1)
# Experiment: SEC; analytical size-exclusion chromatography, Superdex 200 Increase 10/300 GL, buffer A (50 mM PBS, pH 7.5, 500 mM NaCl), 500 μl of protein at 0.5 mg/ml, no polyP; both purified
binder,measurement,value
B1,binding,no binding (tested: 0.5 mg/ml)

# Source: article PMC6537752, “Molecular characterization of CHAD domains as inorganic polyphosphate-binding modules” (Life Science Alliance, 2019)
